Laboratory results: article PMC6195804
No constants are given. Whether binding was seen depends on the method and setting. Binding seen in cells or lysates may run through a third protein. Some binding calls cover weakened binding; strength is not graded here. Values belong to the molecule of their own block, whether it stands above or below them.

The chains behind the UniProt entries cited, without tags or fusion partners.
UniProt P15311: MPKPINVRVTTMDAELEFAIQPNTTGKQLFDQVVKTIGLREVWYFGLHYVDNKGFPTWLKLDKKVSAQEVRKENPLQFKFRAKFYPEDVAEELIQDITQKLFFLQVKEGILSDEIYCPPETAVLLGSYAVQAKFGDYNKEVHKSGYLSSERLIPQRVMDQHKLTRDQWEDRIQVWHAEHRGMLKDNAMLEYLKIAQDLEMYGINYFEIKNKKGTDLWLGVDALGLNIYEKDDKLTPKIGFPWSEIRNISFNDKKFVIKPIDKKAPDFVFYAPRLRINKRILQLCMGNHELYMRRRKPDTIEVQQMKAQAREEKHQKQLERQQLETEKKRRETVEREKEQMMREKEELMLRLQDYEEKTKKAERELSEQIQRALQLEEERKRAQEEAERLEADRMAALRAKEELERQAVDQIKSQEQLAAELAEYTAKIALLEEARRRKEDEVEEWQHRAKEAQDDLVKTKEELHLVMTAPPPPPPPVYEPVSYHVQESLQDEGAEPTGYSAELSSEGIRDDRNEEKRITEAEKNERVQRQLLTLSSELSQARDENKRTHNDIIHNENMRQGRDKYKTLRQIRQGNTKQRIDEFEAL

Columns and labels:
[1] = molecular target: T1, aquaporin-3 (human (endogenous in RL95-2)) (UniProt Q92482); experiment: co-IP; RL95-2 lysate (25 mM HEPES, 100 mM NaCl, 1 mM EDTA, 0.5 mM MgCl2, 10% glycerol, 1% Nonidet P-40, pH 7.5); anti-AQP3 or anti-ezrin antibody at 4°C overnight, protein A/G agarose beads; IgG as negative control; western blot
T1 sequence: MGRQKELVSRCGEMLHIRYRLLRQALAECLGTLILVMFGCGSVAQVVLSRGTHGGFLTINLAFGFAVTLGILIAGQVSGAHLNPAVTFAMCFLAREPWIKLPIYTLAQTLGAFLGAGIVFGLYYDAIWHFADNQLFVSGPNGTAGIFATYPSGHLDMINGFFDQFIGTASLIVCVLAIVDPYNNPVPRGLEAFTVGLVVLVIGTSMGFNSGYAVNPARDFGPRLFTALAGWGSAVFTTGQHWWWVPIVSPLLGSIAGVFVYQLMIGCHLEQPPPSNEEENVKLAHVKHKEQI

[2] = molecular target: ezrin (human (endogenous in RL95-2)) (UniProt P15311); experiment: as above

- binding [1]: binds
Molecule: ezrin (from UniProt P15311 1-586)

- binding [2]: binds
B1: aquaporin-3 (protein, UniProt Q92482 1-292)
chain: T1 sequence
